What follows is the remainder of the data, with few or none of the targets with a hit. The data scatter; read single values as rough. Only a part is listed here, and it is no random draw.
compound: COC(=O)/C=C/c1ccccc1 [methyl cinnamate]; assay: log2 ratio of iodoacetamide-alkyne labeling of the cysteine site, DMSO over compound (competition); higher = stronger covalent engagement of the cysteine by the compound, active = 1 or more; conditions: 500 µM; treatment time 1 h; system: HEK293T cell lysate
Procedure, shortened: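 HEK293T lysate at 2 mg/mL was treated with vehicle or electrophile (500 µM) for 1 h at ambient temperature, then labelled with iodoacetamide alkyne (1 h), clicked to sCIP-TMT reagents, pooled, digested with trypsin overnight at 37 °C, enriched on streptavidin and eluted with acid. Peptides were analysed by Orbitrap Eclipse LC-MS/MS with FAIMS and quantified in FragPipe, using duplicate channels and three replicates, with cysteines quantified in only one replicate excluded. The log2 competition ratio for each cysteine is the mean control-channel reporter intensity divided by the mean compound-channel reporter intensity.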

Chains of the proteins cited; added tags and fusions are not shown. Lines headed by an entry give the natural chain unless they say otherwise; changes in a name come on top.
UniProt Q9NVS9: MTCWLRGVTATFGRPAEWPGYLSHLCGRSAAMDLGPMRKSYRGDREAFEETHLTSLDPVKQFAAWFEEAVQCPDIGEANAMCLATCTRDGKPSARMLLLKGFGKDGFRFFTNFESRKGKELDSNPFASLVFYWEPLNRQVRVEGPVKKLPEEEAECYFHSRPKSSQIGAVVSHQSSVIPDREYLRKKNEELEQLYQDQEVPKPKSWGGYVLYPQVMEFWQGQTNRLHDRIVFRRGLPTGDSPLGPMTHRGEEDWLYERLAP
UniProt Q9UHD1: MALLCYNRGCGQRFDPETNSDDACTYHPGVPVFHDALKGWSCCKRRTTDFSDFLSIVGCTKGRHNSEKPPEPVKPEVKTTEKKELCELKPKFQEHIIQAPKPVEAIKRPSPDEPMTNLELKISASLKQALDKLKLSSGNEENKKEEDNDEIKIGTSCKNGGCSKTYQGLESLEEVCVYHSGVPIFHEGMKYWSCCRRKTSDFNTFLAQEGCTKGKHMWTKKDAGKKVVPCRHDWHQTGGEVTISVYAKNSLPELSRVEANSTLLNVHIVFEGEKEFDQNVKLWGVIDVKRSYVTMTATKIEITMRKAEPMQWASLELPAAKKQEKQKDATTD
UniProt Q9NWY4: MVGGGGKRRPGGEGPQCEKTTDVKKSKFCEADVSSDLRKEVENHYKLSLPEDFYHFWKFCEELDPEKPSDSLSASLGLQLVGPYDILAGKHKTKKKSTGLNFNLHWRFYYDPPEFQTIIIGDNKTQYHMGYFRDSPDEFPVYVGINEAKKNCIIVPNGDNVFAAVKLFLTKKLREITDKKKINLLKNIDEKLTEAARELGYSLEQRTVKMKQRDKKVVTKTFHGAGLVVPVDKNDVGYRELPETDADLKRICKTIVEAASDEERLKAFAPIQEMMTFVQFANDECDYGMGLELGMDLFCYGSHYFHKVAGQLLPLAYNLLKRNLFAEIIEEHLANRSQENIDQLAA
UniProt Q9NUQ8: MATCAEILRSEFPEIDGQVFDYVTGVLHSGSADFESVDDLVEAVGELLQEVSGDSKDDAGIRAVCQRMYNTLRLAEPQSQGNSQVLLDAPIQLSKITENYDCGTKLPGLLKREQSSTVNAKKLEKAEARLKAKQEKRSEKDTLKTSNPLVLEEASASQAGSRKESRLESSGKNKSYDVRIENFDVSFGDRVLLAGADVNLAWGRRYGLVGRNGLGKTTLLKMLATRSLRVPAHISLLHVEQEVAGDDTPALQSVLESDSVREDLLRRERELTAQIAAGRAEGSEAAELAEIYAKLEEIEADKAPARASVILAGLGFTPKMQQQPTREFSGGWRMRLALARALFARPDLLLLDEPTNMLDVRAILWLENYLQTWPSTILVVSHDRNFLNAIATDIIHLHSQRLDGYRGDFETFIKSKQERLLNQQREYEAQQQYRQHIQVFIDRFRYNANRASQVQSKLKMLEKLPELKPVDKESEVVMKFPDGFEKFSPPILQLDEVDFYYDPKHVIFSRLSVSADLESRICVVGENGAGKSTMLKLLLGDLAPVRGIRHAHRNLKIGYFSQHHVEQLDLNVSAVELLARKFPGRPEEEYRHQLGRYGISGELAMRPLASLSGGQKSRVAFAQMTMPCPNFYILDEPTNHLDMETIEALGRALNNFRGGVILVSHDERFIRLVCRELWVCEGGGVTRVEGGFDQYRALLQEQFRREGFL
UniProt Q9NWS0, whole entry: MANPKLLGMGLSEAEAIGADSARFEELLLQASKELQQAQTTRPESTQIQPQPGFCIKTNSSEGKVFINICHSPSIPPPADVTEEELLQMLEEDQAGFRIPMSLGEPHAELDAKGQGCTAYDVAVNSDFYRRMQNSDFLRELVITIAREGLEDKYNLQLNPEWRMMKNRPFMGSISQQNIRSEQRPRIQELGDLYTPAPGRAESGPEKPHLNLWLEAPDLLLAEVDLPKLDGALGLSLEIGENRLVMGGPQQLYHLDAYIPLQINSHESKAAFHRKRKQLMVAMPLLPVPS
UniProt Q9NZL9, whole entry, looked up: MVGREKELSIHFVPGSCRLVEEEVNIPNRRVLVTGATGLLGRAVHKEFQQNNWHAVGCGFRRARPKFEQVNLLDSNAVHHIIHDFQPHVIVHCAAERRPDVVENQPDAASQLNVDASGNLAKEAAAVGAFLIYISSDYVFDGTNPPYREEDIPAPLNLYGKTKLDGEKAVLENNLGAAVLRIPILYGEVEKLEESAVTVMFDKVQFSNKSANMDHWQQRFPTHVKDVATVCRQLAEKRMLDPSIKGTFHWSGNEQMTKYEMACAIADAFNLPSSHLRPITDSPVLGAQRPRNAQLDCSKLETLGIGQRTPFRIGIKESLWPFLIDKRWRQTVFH
UniProt Q9P2I0: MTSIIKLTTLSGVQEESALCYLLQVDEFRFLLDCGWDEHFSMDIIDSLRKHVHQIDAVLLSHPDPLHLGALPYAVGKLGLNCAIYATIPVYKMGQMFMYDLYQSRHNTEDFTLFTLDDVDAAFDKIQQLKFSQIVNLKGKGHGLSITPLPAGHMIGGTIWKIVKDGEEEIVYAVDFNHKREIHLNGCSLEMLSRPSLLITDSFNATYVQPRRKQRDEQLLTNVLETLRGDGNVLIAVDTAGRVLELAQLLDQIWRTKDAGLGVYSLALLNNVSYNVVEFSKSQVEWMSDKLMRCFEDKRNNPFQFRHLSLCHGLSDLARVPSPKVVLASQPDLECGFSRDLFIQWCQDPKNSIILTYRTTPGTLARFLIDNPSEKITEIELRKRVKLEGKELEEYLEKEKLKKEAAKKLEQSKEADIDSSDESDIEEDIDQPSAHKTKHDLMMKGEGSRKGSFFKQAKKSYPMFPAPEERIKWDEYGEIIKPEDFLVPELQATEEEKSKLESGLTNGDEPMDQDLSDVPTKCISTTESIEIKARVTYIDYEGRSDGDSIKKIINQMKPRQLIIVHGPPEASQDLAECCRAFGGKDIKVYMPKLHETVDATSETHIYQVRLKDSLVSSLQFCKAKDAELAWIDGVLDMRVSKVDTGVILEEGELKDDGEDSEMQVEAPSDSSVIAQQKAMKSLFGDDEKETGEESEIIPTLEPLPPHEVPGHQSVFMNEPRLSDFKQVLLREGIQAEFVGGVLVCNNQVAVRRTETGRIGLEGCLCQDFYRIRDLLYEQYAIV
UniProt Q9NV70: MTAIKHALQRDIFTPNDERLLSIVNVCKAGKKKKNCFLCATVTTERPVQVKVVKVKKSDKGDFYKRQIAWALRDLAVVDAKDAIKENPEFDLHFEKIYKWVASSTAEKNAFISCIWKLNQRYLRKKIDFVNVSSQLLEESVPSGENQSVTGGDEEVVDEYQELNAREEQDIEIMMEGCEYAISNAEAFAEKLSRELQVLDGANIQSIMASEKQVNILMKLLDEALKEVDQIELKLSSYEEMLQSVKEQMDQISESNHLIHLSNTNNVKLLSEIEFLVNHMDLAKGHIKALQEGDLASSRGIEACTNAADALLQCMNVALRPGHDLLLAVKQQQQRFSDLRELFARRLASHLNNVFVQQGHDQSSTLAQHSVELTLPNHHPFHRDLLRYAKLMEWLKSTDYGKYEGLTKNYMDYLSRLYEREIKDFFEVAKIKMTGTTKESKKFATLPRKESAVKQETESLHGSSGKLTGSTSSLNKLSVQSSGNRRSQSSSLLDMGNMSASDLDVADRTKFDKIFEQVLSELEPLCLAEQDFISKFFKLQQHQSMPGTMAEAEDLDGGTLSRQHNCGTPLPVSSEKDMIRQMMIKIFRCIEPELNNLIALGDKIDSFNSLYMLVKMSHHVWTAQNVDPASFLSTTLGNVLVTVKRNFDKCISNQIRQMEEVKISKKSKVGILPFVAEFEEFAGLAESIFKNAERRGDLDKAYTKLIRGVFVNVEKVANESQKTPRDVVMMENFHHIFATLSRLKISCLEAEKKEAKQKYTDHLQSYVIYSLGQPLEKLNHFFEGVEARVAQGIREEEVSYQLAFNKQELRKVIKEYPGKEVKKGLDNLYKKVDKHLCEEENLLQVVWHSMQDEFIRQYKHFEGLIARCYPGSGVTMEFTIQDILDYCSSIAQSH
UniProt Q9NVV4: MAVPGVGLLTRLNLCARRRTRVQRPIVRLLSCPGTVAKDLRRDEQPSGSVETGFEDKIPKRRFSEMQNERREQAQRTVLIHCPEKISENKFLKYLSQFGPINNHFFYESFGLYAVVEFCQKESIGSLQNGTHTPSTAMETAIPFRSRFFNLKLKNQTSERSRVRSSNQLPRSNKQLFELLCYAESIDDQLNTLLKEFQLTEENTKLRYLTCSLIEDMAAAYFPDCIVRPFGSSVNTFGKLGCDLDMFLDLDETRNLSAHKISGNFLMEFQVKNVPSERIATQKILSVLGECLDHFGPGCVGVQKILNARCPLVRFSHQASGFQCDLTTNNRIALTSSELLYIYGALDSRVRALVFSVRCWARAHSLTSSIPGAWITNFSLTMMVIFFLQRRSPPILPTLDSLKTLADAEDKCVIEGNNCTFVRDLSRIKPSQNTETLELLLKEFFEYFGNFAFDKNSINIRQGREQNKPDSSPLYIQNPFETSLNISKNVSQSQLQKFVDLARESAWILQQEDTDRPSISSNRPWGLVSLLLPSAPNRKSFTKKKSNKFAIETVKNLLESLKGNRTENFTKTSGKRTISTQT
UniProt Q9UFW8: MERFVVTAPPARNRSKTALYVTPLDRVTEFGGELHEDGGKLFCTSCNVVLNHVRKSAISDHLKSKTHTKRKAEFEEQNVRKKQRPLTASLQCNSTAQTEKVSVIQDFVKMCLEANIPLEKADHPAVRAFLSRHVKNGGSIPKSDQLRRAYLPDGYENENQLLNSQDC
UniProt Q9P260: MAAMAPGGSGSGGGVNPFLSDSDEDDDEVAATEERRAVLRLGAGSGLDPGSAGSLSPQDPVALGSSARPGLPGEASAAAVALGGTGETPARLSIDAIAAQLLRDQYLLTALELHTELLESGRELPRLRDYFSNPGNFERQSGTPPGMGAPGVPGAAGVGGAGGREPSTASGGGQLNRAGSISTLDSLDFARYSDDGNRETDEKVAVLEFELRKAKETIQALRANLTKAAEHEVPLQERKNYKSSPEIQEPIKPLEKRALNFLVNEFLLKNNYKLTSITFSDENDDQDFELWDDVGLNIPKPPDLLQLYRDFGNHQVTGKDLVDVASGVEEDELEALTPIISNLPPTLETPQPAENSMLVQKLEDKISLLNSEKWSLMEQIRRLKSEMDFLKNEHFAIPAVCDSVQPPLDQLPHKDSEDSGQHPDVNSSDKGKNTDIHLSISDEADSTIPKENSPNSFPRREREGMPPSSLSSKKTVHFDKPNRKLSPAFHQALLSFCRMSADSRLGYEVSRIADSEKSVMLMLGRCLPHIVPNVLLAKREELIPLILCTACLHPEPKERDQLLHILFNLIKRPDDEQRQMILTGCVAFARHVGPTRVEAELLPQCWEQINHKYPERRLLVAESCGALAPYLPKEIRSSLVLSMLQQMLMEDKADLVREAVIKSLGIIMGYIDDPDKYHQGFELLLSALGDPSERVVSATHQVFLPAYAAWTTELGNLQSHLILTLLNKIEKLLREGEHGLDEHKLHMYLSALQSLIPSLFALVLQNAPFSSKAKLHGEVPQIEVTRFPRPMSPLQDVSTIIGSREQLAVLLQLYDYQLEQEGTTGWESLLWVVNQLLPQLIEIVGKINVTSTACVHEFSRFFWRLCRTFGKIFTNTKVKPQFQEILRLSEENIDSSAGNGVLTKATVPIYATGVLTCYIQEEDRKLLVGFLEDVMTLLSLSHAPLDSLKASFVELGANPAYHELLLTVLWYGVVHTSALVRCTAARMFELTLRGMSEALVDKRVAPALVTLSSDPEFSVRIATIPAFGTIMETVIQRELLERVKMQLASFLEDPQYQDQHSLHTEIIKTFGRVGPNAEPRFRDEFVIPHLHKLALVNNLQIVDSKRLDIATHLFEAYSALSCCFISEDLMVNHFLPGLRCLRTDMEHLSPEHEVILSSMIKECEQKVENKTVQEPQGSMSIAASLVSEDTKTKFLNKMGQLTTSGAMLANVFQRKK
UniProt Q9NY27: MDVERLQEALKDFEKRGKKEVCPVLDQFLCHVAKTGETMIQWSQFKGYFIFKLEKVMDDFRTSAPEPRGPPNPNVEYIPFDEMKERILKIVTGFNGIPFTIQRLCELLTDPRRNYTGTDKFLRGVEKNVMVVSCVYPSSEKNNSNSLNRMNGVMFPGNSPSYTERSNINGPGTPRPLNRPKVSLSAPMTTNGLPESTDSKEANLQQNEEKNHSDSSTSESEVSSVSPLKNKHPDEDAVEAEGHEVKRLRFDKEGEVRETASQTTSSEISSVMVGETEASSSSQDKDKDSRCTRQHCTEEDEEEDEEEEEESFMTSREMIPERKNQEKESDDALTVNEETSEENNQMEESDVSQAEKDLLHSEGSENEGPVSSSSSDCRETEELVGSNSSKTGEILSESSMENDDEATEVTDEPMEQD

Target	log2 ratio of iodoacetamide-alkyne labeling
PNPO C156 (UniProt Q9NVS9)	inactive: 0.198
CHORDC1 C211 (UniProt Q9UHD1)	inactive: 0.12
UniProt Q9NWY4_C17	inactive: 0.339
ABCF3 C102 (UniProt Q9NUQ8)	inactive: 0.392
PIH1D1 C117 (UniProt Q9NWS0)	inactive: -0.036
UniProt Q9UBD5_C621	inactive: -0.034
MAT2B C17 (UniProt Q9NZL9)	inactive: 0.247
CPSF2 C765 (UniProt Q9P2I0)	inactive: 0.202
TES C364 (UniProt Q9UGI8)	inactive: 0.0488
EXOC1 C650 (UniProt Q9NV70)	inactive: 0.176
OGFR C87 (UniProt Q9NZT2)	inactive: 0.349
DAXX C720 (UniProt Q9UER7)	inactive: 0.494
MTPAP C419 (UniProt Q9NVV4)	inactive: 0.246
UniProt Q9NVH0_C284	inactive: 0.296
UniProt Q9UBD5_C158	inactive: 0.679
CGGBP1 C111 (UniProt Q9UFW8)	inactive: 0.389
SMPD4 C698 (UniProt Q9NXE4)	inactive: -0.0752
DDX56 C286 (UniProt Q9NY93)	inactive: 0.0614
UniProt Q9P260_C624	inactive: -0.151
PPP4R2 C134 (UniProt Q9NY27)	inactive: 0.186
OGFR C417 (UniProt Q9NZT2)	inactive: 0.0891
TES C412 (UniProt Q9UGI8)	inactive: -0.0167

Reference: the supplement of paper PMC11006884
